PubChem BioAssay AID1224830 – NIAID – 2016

Assay: 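Genes whose knock-down alters the TNF-alpha reporter response to LPS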 (primary screen)
Cells: human THP-1 monocytic leukaemia cells, TNF dual-luciferase reporter clone, PMA-differentiated to macrophage-like cells
Knock-down reagent: siRNA pool against human genes, 50 nM
Timing: LPS for 4 h, given about 3 days after siRNA transfection
Challenge: bacterial LPS (TLR4 ligand), 10 ng/ml
Read-out: 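Ratio of firefly to renilla light, scaled to the plate median and expressed as a robust z-score per replicate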
Scale: TNF reporter robust z-score: higher = stronger TNF reporter response to LPS
Active means: 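Each well counts as active if its z-score is over 2.8 or under -1.5; controls are left without a call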
This is a random part of about 18,000 deposited reagents. About 2,900 of all reagents (16%) count as active. 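Calls are made per well; low scores hint the gene aids the LPS response, high scores that it dampens it.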 Repeated entries: four replicate wells of each siRNA pool.

With knock-down of MYBPH (myosin binding protein H), the record shows TNF reporter robust z-score 0.18; inactive. Against MYBPH (myosin binding protein H), the entry reads TNF reporter robust z-score -0.1; inactive. MYBPH (myosin binding protein H) gave TNF reporter robust z-score 0.86; inactive. With knock-down of MYBPH (myosin binding protein H), the screen gave TNF reporter robust z-score 1.44; inactive. Knock-down of POLE4 (DNA polymerase epsilon 4, accessory subunit) resulted in: TNF reporter robust z-score 1.84; inactive. POLE4 (DNA polymerase epsilon 4, accessory subunit) showed TNF reporter robust z-score 1.85; inactive.

POLE4 (DNA polymerase epsilon 4, accessory subunit) scored TNF reporter robust z-score 2.25; inactive. For POLE4 (DNA polymerase epsilon 4, accessory subunit), the entry reads TNF reporter robust z-score 2.35; inactive. RAMP2 (receptor activity modifying protein 2) gave TNF reporter robust z-score -0.64; inactive. RAMP2 (receptor activity modifying protein 2) scored TNF reporter robust z-score -0.06; inactive. For RAMP2 (receptor activity modifying protein 2), the values are TNF reporter robust z-score -0.56; inactive. With knock-down of RAMP2 (receptor activity modifying protein 2), the record shows TNF reporter robust z-score 0; inactive.

SLCO3A1 gave TNF reporter robust z-score 1.07; inactive. After knock-down of SLCO3A1, the record shows TNF reporter robust z-score 0.37; inactive. SLCO3A1 gave TNF reporter robust z-score 0.43; inactive. Against SLCO3A1 the deposit lists TNF reporter robust z-score 0.4; inactive. After knock-down of KCTD11 (potassium channel tetramerization domain containing 11), the record shows TNF reporter robust z-score -0.14; inactive. KCTD11 (potassium channel tetramerization domain containing 11) scored TNF reporter robust z-score 1.49; inactive.

Knock-down of KCTD11 (potassium channel tetramerization domain containing 11) gave: TNF reporter robust z-score 1.91; inactive. With knock-down of KCTD11 (potassium channel tetramerization domain containing 11) the results were TNF reporter robust z-score 1.38; inactive. With knock-down of DPH5 (diphthamide biosynthesis 5) the results were TNF reporter robust z-score 0.28; inactive. DPH5 (diphthamide biosynthesis 5) gave TNF reporter robust z-score 0.2; inactive. DPH5 (diphthamide biosynthesis 5) gave TNF reporter robust z-score 0.15; inactive. Knock-down of DPH5 (diphthamide biosynthesis 5) gave: TNF reporter robust z-score 0.87; inactive.

For BRD2 (bromodomain containing 2), the values are TNF reporter robust z-score -1.6; active. BRD2 (bromodomain containing 2) gave TNF reporter robust z-score -1.77; active. Knock-down of BRD2 (bromodomain containing 2) came out at: TNF reporter robust z-score -0.28; inactive. With knock-down of BRD2 (bromodomain containing 2) the results were TNF reporter robust z-score 0.76; inactive. Depletion of CTNNB1 (catenin beta 1) resulted in: TNF reporter robust z-score -0.44; inactive. CTNNB1 (catenin beta 1) gave TNF reporter robust z-score 0.02; inactive.

CTNNB1 (catenin beta 1) scored TNF reporter robust z-score -0.36; inactive. Depletion of CTNNB1 (catenin beta 1) gave: TNF reporter robust z-score 0.67; inactive. With knock-down of CIP2A (cellular inhibitor of PP2A) the results were TNF reporter robust z-score -1.29; inactive. For CIP2A (cellular inhibitor of PP2A), the entry reads TNF reporter robust z-score -1.07; inactive. CIP2A (cellular inhibitor of PP2A) gave TNF reporter robust z-score -1.25; inactive. CIP2A (cellular inhibitor of PP2A) showed TNF reporter robust z-score -1.5; inactive.

Against EIF2B2 (eukaryotic translation initiation factor 2B subunit beta), the entry reads TNF reporter robust z-score -0.79; inactive. EIF2B2 (eukaryotic translation initiation factor 2B subunit beta) gave TNF reporter robust z-score -1.4; inactive. EIF2B2 (eukaryotic translation initiation factor 2B subunit beta) showed TNF reporter robust z-score -0.81; inactive. Against EIF2B2 (eukaryotic translation initiation factor 2B subunit beta), the values are TNF reporter robust z-score -0.77; inactive. With knock-down of B3GAT2 (beta-1,3-glucuronyltransferase 2), the record shows TNF reporter robust z-score -0.47; inactive. B3GAT2 (beta-1,3-glucuronyltransferase 2) scored TNF reporter robust z-score 0.1; inactive.

B3GAT2 (beta-1,3-glucuronyltransferase 2) gave TNF reporter robust z-score -0.82; inactive. Depletion of B3GAT2 (beta-1,3-glucuronyltransferase 2) gave: TNF reporter robust z-score -0.14; inactive. Silencing of TRMT5 (tRNA methyltransferase 5) came out at: TNF reporter robust z-score -0.1; inactive. Knock-down of TRMT5 (tRNA methyltransferase 5) gave: TNF reporter robust z-score -0.22; inactive. With knock-down of TRMT5 (tRNA methyltransferase 5), the screen gave TNF reporter robust z-score -0.58; inactive. After knock-down of TRMT5 (tRNA methyltransferase 5), the record shows TNF reporter robust z-score 0.44; inactive.

A stretch of the results above, as a working copy:
CIP2A (cellular inhibitor of PP2A) — TNF reporter robust z-score = -1.25; activity call = inactive
CIP2A (cellular inhibitor of PP2A) — TNF reporter robust z-score = -1.5; activity call = inactive
EIF2B2 (eukaryotic translation initiation factor 2B subunit beta) — TNF reporter robust z-score = -0.79; activity call = inactive
EIF2B2 (eukaryotic translation initiation factor 2B subunit beta) — TNF reporter robust z-score = -1.4; activity call = inactive
